# According to paper PMC6925144, “A prospective compound screening contest identified broader inhibitors for Sirtuin 1” (Scientific Reports, 2019):
# Protein sequences, listed by entry. Tags and fused reporters are not part of them. Residues count along the entry.
# UniProt Q96EB6, 2-747 limits assumed: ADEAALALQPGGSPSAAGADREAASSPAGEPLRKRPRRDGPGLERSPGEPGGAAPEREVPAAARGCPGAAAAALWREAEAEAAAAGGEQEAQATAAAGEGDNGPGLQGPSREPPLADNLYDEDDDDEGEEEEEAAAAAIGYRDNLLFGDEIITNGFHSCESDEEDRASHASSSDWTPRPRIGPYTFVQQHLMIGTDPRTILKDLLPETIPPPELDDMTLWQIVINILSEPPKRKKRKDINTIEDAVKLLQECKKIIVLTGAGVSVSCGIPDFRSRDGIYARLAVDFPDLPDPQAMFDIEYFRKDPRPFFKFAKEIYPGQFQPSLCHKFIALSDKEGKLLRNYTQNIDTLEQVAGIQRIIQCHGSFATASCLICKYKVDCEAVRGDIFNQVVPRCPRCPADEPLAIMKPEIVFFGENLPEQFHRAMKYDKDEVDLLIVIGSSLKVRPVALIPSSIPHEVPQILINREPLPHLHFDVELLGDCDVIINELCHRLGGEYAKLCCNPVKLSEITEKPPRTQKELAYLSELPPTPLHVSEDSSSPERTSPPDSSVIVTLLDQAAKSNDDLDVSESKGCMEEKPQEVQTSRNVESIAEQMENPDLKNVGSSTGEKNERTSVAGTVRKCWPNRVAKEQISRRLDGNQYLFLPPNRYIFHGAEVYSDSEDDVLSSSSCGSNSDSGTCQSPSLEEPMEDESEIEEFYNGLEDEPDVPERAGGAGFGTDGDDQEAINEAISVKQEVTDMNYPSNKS
# Whole data set: some 3,200 compounds, median “TSA(without NAD+) / Primary screening (TSA) / delta Tm (K)” near -0.07, cut for the highest 2% near 0.37. This is one part of the list.
# Target: NAD-dependent deacetylase Sirtuin 1 (human, UniProt Q96EB6)
# Experiment: primary screen, delta tm
# Set-up: single well (n = 1)
# Conditions: 10 µM
# Summary of the method: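 Thermal shift of Sirtuin 1 measured without NAD+, compound at 10 µM (n = 1); value is ΔTm, with hits defined as ΔTm > 0.45 K or < −1.5 K. Hits retested at 5, 10, 20 µM (n = 4) and counterscreened on bovine carbonic anhydrase and ABL1 SH2 domain.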
row,Structure (SMILES),TSA(without NAD+) / Primary screening (TSA) / delta Tm (K)
1,COC(=O)c1c(N2C(=O)C=CC2=O)sc2c1CCCC2,-0.22 K
2,COc1ccc(S(=O)(=O)N2CCc3ccccc32)cc1C(=O)Nc1cccc(S(=O)(=O)NCc2ccco2)c1,0.22 K
3,Cc1ccc(-c2cc(C(=O)OC(C)C(=O)Nc3cccc([N+](=O)[O-])c3)[nH]n2)cc1 (stereo not drawn),0.12 K
4,CCC(CNc1nc(-c2ccncc2)nc2ccccc12)N1CCCC1 (stereo not drawn),0.05 K
5,O=C(CC12CC3CC(CC(O)(C3)C1)C2)N1CC=C(c2ccc(O)cc2)CC1,-0.05 K
6,NNC(=O)CCN1CCCCCC1,-0.04 K
7,COc1cc(C#N)cc(OC)c1OC,-0.11 K
8,O=c1oc2cc(O)ccc2cc1-c1csc(-c2cc3c(ccc4ccccc43)oc2=O)n1,0.15 K
9,O=C(CSc1ccccc1C(=O)Nc1ccccc1N1CCOCC1)NC12CC3CC(CC(C3)C1)C2,-0.18 K
10,CCOc1ccc(C2C(C(=O)c3ccc(Cl)cc3)=C(O)C(=O)N2CCCN2CCOCC2)cc1 (stereo not drawn),0.13 K
11,O=C(COC(=O)c1cccc(S(=O)(=O)NCc2ccccc2)c1)NC12CC3CC(CC(C3)C1)C2,-0.18 K
12,Cn1cc(C(=O)O)c(-c2cccnc2)n1,0.17 K
13,NC(=O)C1NCCc2c(N)cccc21 (stereo not drawn),-0.23 K
14,CCOc1cccc(C2C(C(=O)c3sc(C)nc3C)=C(O)C(=O)N2CCCN2CCOCC2)c1 (stereo not drawn),0.06 K
15,CN(c1ccccc1)S(=O)(=O)c1cccc(NC(=O)COc2ccc3oc4ccccc4c3c2)c1,-0.04 K
16,COc1ccc(N(C)S(=O)(=O)c2cccc(C(=O)N(C)CCOc3ccc(F)cc3)c2)cc1,-0.08 K
17,Cc1cccc(N(Cc2ccccc2)C(=O)COC(=O)C23CC4CC(CC(O)(C4)C2)C3)c1,-0.08 K
18,Cn1c(-c2ccccc2)cc2ccccc21,-0.08 K
19,COc1cccc(C2C(C(=O)c3ccc(Cl)cc3)=C(O)C(=O)N2CCCN2CCOCC2)c1 (stereo not drawn),-0.12 K
20,CC(C)C(CNc1ccc2nnnn2n1)N1CCc2ccccc2C1 (stereo not drawn),0.02 K
21,O=C1CCN(c2ncnc3cc(Cl)ccc23)CCN1,-0.08 K
22,O=C(NCCN1CCN(c2ccc(F)cc2)CC1)c1cc[nH]n1,-0.12 K
23,Cc1c(F)cc(C(N)=O)cc1NCC(=O)Nc1ccc([N+](=O)[O-])cc1,-0.11 K
24,O=C(CCCn1c(=O)oc2cc([N+](=O)[O-])ccc21)N1CCN(Cc2ccc(Cl)s2)CC1,-0.07 K

# Ordered by SMILES length (descending): 4 of the compounds above.
row,Structure (SMILES),TSA(without NAD+) / Primary screening (TSA) / delta Tm (K)
2,COc1ccc(S(=O)(=O)N2CCc3ccccc32)cc1C(=O)Nc1cccc(S(=O)(=O)NCc2ccco2)c1,0.22 K
24,O=C(CCCn1c(=O)oc2cc([N+](=O)[O-])ccc21)N1CCN(Cc2ccc(Cl)s2)CC1,-0.07 K
16,COc1ccc(N(C)S(=O)(=O)c2cccc(C(=O)N(C)CCOc3ccc(F)cc3)c2)cc1,-0.08 K
21,O=C1CCN(c2ncnc3cc(Cl)ccc23)CCN1,-0.08 K

# Entries shown so far containing a thiophene ring, fused or not, in the order listed:
row,Structure (SMILES),TSA(without NAD+) / Primary screening (TSA) / delta Tm (K)
1,COC(=O)c1c(N2C(=O)C=CC2=O)sc2c1CCCC2,-0.22 K
24,O=C(CCCn1c(=O)oc2cc([N+](=O)[O-])ccc21)N1CCN(Cc2ccc(Cl)s2)CC1,-0.07 K

# (further entries)

row,Structure (SMILES),TSA(without NAD+) / Primary screening (TSA) / delta Tm (K)
1,CN(c1ccccc1)S(=O)(=O)c1cccc(NC(=O)CNc2cccc3ccccc23)c1,0.17 K
2,O=C(CSc1nc(-c2ccccc2)c(-c2ccccc2)o1)c1c[nH]c(C(=O)N2CCCC2)c1,-0.04 K
3,Cc1ccccc1N1C(=O)c2ccc(C(=O)OCC(N)=O)cc2C1=O,-0.08 K
4,O=C(O)c1ccc2[nH]c3c(c2c1)CCCC3,-0.15 K
5,CC1CCc2[nH]c3ccc(C(=O)NC4CC4)cc3c2C1 (stereo not drawn),-0.14 K
6,O=C(Cn1ccc(=O)c2ccccc21)Nc1ccc(N2CCCCC2)nc1,-0.02 K
7,O=C1CCCN1c1ccc(O)cc1,-0.28 K
8,COc1cc(/C=N/NC(=O)c2cc3c(s2)CCCC3)ccc1OCC(=O)Nc1ccc(C)cc1,-0.22 K
9,CCOc1ccc2[nH]c(SCC(=O)N3CCCCC3C(N)=O)nc2c1 (stereo not drawn),-0.18 K
10,Cc1cc(CNc2ccc(Cl)cc2C(N)=O)no1,-0.03 K
11,CC(OC(=O)CCC(=O)c1ccc(F)cc1)C(=O)Nc1ccc(C(N)=O)cc1 (stereo not drawn),-0.02 K
12,CCCOc1ccc(C2C(C(=O)/C=C/c3ccco3)=C(O)C(=O)N2CCCN2CCOCC2)cc1 (stereo not drawn),-0.02 K
13,COc1ccc2cc(CN(C)CC(=O)Nc3ccc(C)cc3)ccc2c1,-0.02 K
14,c1ccc(CN2CCCCCC2)c(CNc2ccc3nnnn3n2)c1,-0.11 K
15,CCC(C)c1ccccc1NC(=O)Cc1coc2cc3c(cc12)CCC3 (stereo not drawn),-0.04 K
16,CCc1ccc(N(C(C)=O)c2nc(COC(=O)CNC(=O)C34CC5CC(CC(C5)C3)C4)cs2)cc1,-0.03 K
17,COc1ccc(CCNC(=O)COC(=O)CCc2ccc(S(=O)(=O)N3CCCCC3)cc2)cc1OC,-0.14 K
18,O=S(=O)(NC1CCCNC1)c1ccccc1Br (stereo not drawn),-0.33 K
19,COc1cc(CN(C)C(=O)c2ccc(CS(C)(=O)=O)cc2)ccc1OCc1ccccc1,-0.17 K
20,CO/N=C(/C)c1ccc2[nH]c(=O)[nH]c2c1,0.06 K
21,Cc1cc(C(=O)COC(=O)C23CC4CC(CC(O)(C4)C2)C3)c(C)n1-c1ccc2c(c1)OCO2,0.03 K
22,Cc1cc(=O)c2c(C)nn(-c3cccc(Cl)c3)c2[nH]1,0.18 K
23,OC(CCc1ccccc1)CN1CCN(c2cncc3ccccc23)CC1 (stereo not drawn),-0.11 K
24,CCOc1ccc2[nH]c(SCC(=O)N3CCCC(C(N)=O)C3)nc2c1 (stereo not drawn),-0.15 K

row,Structure (SMILES),TSA(without NAD+) / Primary screening (TSA) / delta Tm (K)
1,COc1ccc2c(C=C3C(=O)N(C)C(=O)N(C)C3=O)cccc2c1,-0.13 K
2,CCOC(=O)c1ccccc1NC(=O)COc1ccc(C(N)=O)cc1,-0.07 K
3,Cc1c(NC(=O)c2cnc3ccccc3n2)c(=O)n(-c2ccccc2)n1C,-0.03 K
4,CCc1cc2c(N3CCC(C(N)=O)CC3)nc(C(C)C)nc2s1,-0.03 K
5,COc1ccccc1CNC(=O)/C(=C/c1ccccc1)c1ccccc1,-0.13 K
6,Cc1cc(NC(=O)CSc2nnc(-c3c[nH]c4ccccc34)n2Cc2ccco2)no1,-0.02 K
7,O=C(CC(F)(F)F)Nc1cccc(F)c1,-0.02 K
8,CNc1cc(C)nc2c(-c3ccccc3)c(C(F)(F)F)nn12,-0.07 K
9,O=C(Nc1ccc2nc[nH]c(=O)c2c1)c1ccn(-c2ccccc2)n1,0.08 K
10,Cc1noc(-c2cccc(NC(=O)c3ccccc3-c3ncc(-c4ccccc4)o3)c2)n1,-0.12 K
11,COCC(C)Nc1ncnc2ccsc12 (stereo not drawn),-0.04 K
12,NCCSCC(=O)O,-0.32 K
13,Cc1nc(S)sc1CC(=O)NC1CCCCC1C (stereo not drawn),-0.08 K
14,CN(CC1OCCc2ccccc21)C(=O)c1cccc(-n2ccnn2)c1 (stereo not drawn),-0.18 K
15,COc1ccc2[nH]cc(C3=CCN(C(=O)c4cc(C)no4)CC3)c2c1,0.02 K
16,Cc1ccc(-c2nnc(S)n2C)cc1,-0.08 K
17,O=C(CCCc1cccs1)NCc1nc2ccccc2[nH]1,-0.21 K
18,Cc1ccc(C2CC(c3ccc4c(c3)OCO4)=NN2S(C)(=O)=O)cc1 (stereo not drawn),-0.24 K
19,C#CCNC(=O)Cc1c(C)nc2c(c1C)c(=O)[nH]n2C,-0.13 K
20,CC(C)C(NC(N)=O)C(=O)Nc1ccc(CCO)cc1 (stereo not drawn),-0.12 K
21,CC(OC(=O)c1ccc2c(c1)S(=O)(=O)c1ccccc1C2=O)C(=O)Nc1ncnc2[nH]cnc12 (stereo not drawn),-0.11 K
22,C#CCn1cnc2c(N)ncnc21,0.09 K
23,COc1ccc(C(NC(=O)C(C)NC(=O)C23CC4CC(CC(C4)C2)C3)c2ccccc2)cc1 (stereo not drawn),-0.07 K
24,C/C=C/CCN,0.03 K

row,Structure (SMILES),TSA(without NAD+) / Primary screening (TSA) / delta Tm (K)
1,CCC(NCc1cccc2cn[nH]c12)c1ccc2c(c1)OCCO2 (stereo not drawn),-0.23 K
2,CCn1cc(C2CS(=O)CCN2c2ncnc3c2oc2ccccc23)cn1 (stereo not drawn),-0.23 K
3,Nc1ccn([C@@H]2O[C@H](CO)[C@@H](O)[C@@H]2O)c(=O)n1,0.12 K
4,CCOC(=O)c1c(NC(=O)COC(=O)C23CC4CC(CC(Cl)(C4)C2)C3)sc(C(=O)N(CC)CC)c1C,0.08 K
5,O=C(O)c1ccc2[nH]c(=O)[nH]c2c1,-0.12 K
6,Cn1cc(CCC(=O)NCC(=O)O)c2ccccc21,-0.22 K
7,O=C(O)c1ccc(NC(=O)C2CC2c2ccco2)cc1 (stereo not drawn),-0.13 K
8,Cn1cc(S(=O)(=O)N2CCN(C(=O)CSCc3nc4ccccc4[nH]3)CC2)cc1C(N)=O,-0.04 K
9,CCc1nnc(N2CCC(n3cnc(C(N)=O)c3N)CC2)c(C#N)c1CC,-0.02 K
10,CCN1CCN(C(=O)CCNC(=O)/C=C/c2ccc(OC)cc2)CC1,0.02 K
11,CCc1cc2c(N3CCN(Cc4ccc5c(c4)OCO5)CC3)nc(C)nc2s1,-0.31 K
12,Cc1ccc(N(C)S(=O)(=O)c2cccc(C(=O)Nc3ccncc3)c2)cc1,-0.18 K
13,CC(C)Cc1ccc(C(NC(C)C(=O)Nc2ccc(C(N)=O)cc2)C(C)C)cc1 (stereo not drawn),-0.24 K
14,CC(=O)Nc1ccc(C(=O)Nc2cccc(S(=O)(=O)NCc3ccco3)c2)s1,-0.02 K
15,COC(C)CCN (stereo not drawn),-0.12 K
16,Cc1ccc(CN(C)CC(=O)Nc2ccc3c(c2)OCCCO3)cc1,-0.12 K
17,CSc1cccc(N2CC(C(=O)OCC(N)=O)CC2=O)c1 (stereo not drawn),-0.27 K
18,O=C(Nc1ccccc1)C1CCN(C(=O)c2cccc(S(=O)(=O)NCc3ccccc3)c2)CC1,-0.13 K
19,NC(=S)c1ccc(C(=O)NC2CCC(O)CC2)cc1 (stereo not drawn),0.08 K
20,O=S(=O)(NCCNS(=O)(=O)c1cccs1)c1cccs1,-0.03 K
21,O=C(CSCC(=O)Nc1cccc2ccccc12)Nc1ccccc1F,-0.22 K
